Experimental data from PubChem BioAssay AID504834 (National Center for Advancing Translational Sciences (NCATS), 2011).
Among all 320,000 compounds or so, about 22,000 (6.9%) were called active. This list was built around the results that the source calls inconclusive (neither active nor inactive); the mix of calls is not that of the screen. Calls follow the shape of the dose curve; as a rule, active = well fitted inhibition curve with a large enough effect; inconclusive = small, poorly fitted or top-dose-only effect, or another doubt; inactive = no such curve, though single readings can be large or run the other way. Potencies beside an inconclusive call are fits to weak or partial responses and may not hold up.

Assay: Primary qHTS for delayed death inhibitors of the malarial parasite plastid, 96 hour incubation
Conditions: P. falciparum luciferase reporter growth; series mostly up to 28.7 µM
How it was run: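 Delayed-death screen, second-generation endpoint: infected erythrocytes, 2% hematocrit, 0.05% parasitemia final; 96 hours at 37 C, 5% CO2; luciferase detection reagent; luminescence decrease equals reduced growth.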
% is scaled to controls: 0 for no effect and ±100 for the full control effect; potency is read from the fitted curve at half-maximal effect.

Row | SMILES | Potency | activity change, negative = inhibition
1 | Cc1ccc2nc(NC(=O)CSCC(=O)OCC(=O)c3ccccc3)sc2c1 | inconclusive: 0.0415 µM [inhibitor, full curve, poor fit] | –
2 | O=C(c1ccc(-n2c(SCc3cccc(F)c3)nc3ccccc3c2=O)cc1)N1CCOCC1 | inactive | –
3 | CC(=O)C1=C(C)Nc2ncnn2C1c1ccc(Br)cc1 (centres undefined) | inactive | –
4 | c1ccc(CCCc2nc(-c3ccccn3)no2)cc1 | inconclusive: 0.0104 µM [inhibitor, full curve, poor fit] | –
5 | Nc1ccc2ncccc2c1 | inconclusive: 0.0033 µM [inhibitor, full curve, poor fit] | –
6 | COCCN=C1Sc2nc3ccc(C)cc3cc2CN1Cc1cccs1 | inconclusive: 18.5 µM [inhibitor, single point] | –
7 | COc1ccc(CNCCC2(O)CC(C)N(C)CC2C)cc1OC (centres undefined) | inconclusive: 14.7 µM [inhibitor, single point] | –
8 | COc1ccc(CCNS(=O)(=O)c2cc(C(=O)O)c(Cl)cc2Cl)cc1 | – | inactive: -40% [at 1.15 µM]
9 | COc1cc2cc(C#N)c(SCC(=O)N3CCOCC3)nc2cc1OC | inconclusive: 11.7 µM [inhibitor, single point] | –
10 | C=Cc1ccc2c(c1)OCCOCCOCCOCCOCCO2 | inconclusive: 14.7 µM [inhibitor, single point] | –
11 | Cc1c(Cl)cccc1N1C(=O)C2ON(c3ccccc3)C(c3cccnc3)C2C1=O (centres undefined) | inconclusive: 18.5 µM [inhibitor, single point] | –
12 | CC1CCc2c(sc3nc(C(C)(C)C)nc(N4CCN(C(=O)CCl)CC4)c23)C1 (centres undefined) | active: 6.57 µM | –
13 | COc1ccc2sc(N(CCCN(C)C)C(=O)c3ccc(S(=O)(=O)N(C)C4CCCCC4)cc3)nc2c1 | inconclusive: 18.5 µM [inhibitor, single point] | –
14 | O=C(Nc1ccccc1N1CCCC1)C1CCN(S(=O)(=O)c2ccccc2C(F)(F)F)CC1 | inconclusive: 20.8 µM [inhibitor, single point] | –
15 | COc1cc2c(cc1OC)C1C/C(=N\O)C(CC(C)C)CN1CC2 (centres undefined) | inactive | –
16 | Cc1nnc(N/N=C/c2c(O)n(-c3cccc(C(F)(F)F)c3)c(=O)c3ccccc23)[nH]c1=O | inconclusive: 2.08 µM [inhibitor, full curve] | –
17 | COc1ccccc1NC(=O)CCC(=O)OCc1ccc([N+](=O)[O-])cc1 | inconclusive: 18.5 µM [inhibitor, single point] | –
18 | COc1cc(C(=O)NCC2CCCO2)cc(OC)c1OC (centres undefined) | inconclusive: 4.65 µM [inhibitor, partial curve, poor fit] | –
19 | Cc1ccc(NCc2nnc(SCC#N)o2)c(C)c1 | inconclusive: 18.5 µM [inhibitor, single point] | –
20 | O=C(Nc1cccc(F)c1)N1CCCC(CNS(=O)(=O)Cc2ccccc2)C1 (centres undefined) | active: 5.22 µM | –
21 | Cn1c(SCc2nc(-c3ccc(Cl)cc3)no2)nnc1-c1cccs1 | inactive | –
22 | CCOC(=O)N1CCC(NC(=O)Cn2cc3c(n2)CCC(C)C3)CC1 (centres undefined) | inactive | –
23 | Cc1sc2ncnc(Nc3ccc(O)cc3)c2c1C | inconclusive: 18.5 µM [inhibitor, single point] | –

Row | SMILES | Potency | activity change, negative = inhibition
24 | N#Cc1ccc(C23CC4(C2)[C@H](CN(Cc2ccc(-c5ccccc5)cc2)[C@@H]4c2ccccc2)C3c2ccc(C(F)(F)F)cc2)cc1 (some centres undefined) | inconclusive: 4.15 µM [inhibitor, single point] | –
25 | Cn1c(=O)n(C/C=C/c2ccccc2)c(=O)c2c1nc1n2CCCN1c1ccc(F)cc1 | inconclusive: 11.7 µM [inhibitor, single point] | –
26 | Cc1ccc2oc(C(=O)N3CCN(CCO)CC3)c(C)c2c1 | inconclusive: 16.5 µM [inhibitor, partial curve, poor fit] | –
27 | O=C(Oc1ccc(C(=S)N2CCOCC2)cc1)c1ccc([N+](=O)[O-])cc1 | active: 1.47 µM | –
28 | CCOC(=O)CNS(=O)(=O)CCN1C(=O)c2ccccc2C1=O | inconclusive: 4.15 µM [inhibitor, single point] | –
29 | Cc1ccc2[nH]c(=O)c(CNC(C)(C)C)cc2c1 | inactive | –
30 | Cc1ccc(S(=O)(=O)Nc2ccc(-c3nnc(SCc4ccccc4Cl)o3)cc2)cc1 | inconclusive: 18.5 µM [inhibitor, single point] | –
31 | COC(=O)c1c(C)[nH]c(C(=O)N2CCN(c3ccc(OC)cc3)CC2)c1C | inconclusive: 18.5 µM [inhibitor, single point] | –
32 | O=C(CCn1nc(-c2ccc(Cl)cc2)c2ccccc2c1=O)NCC1CCCO1 (centres undefined) | inconclusive: 18.5 µM [inhibitor, single point] | –
33 | O=C(NCc1cccnc1)c1ccc(-c2cc(Cl)ccc2Cl)o1 | active: 11.7 µM | –
34 | CC(OC(=O)CNC(=O)c1ccccc1)C(=O)Nc1ccc(S(=O)(=O)N2CCOCC2)cc1 (centres undefined) | inactive | –
35 | CCOC(=O)c1sc(=S)n(-c2ccc(OC)cc2)c1N | inconclusive: 9.28 µM [inhibitor, single point] | –
36 | CCC(CC)c1nnc(NC(=O)CCc2ccccc2OC)s1 | inactive | –
37 | Cc1ccc(S(=O)(=O)N2CC=C(C(=O)NCc3ccc(F)cc3)CC2)cc1 | inconclusive: 10.4 µM [inhibitor, partial curve, poor fit] | –
38 | Cc1ccnc(NC(=O)c2cccc(NC(=O)Cc3ccccc3)c2)c1 | inconclusive: 7.38 µM [inhibitor, partial curve] | –
39 | Cc1ccccc1COC(=O)CCCC1=NS(=O)(=O)c2ccccc2N1 | inconclusive: 18.5 µM [inhibitor, single point] | –
40 | COc1cccc(C(=O)Nc2ccc3c(cc2=O)[C@@H](NC(C)=O)CCc2cc(OC)c(OC)c(OC)c2-3)c1 | inconclusive: 7.38 µM [inhibitor, partial curve, poor fit] | –
41 | CC1CCN(S(=O)(=O)c2ccc(NC(=O)CCN3C(=O)C4CC=CCC4C3=O)cc2)CC1 (centres undefined) | inconclusive: 16.5 µM [inhibitor, single point] | –
42 | c1ccc(Cn2c(NCc3ccco3)nc3ccccc32)cc1 | inconclusive: 7.38 µM [inhibitor, partial curve, poor fit] | –
43 | COc1ccc(/C=C2\CCCC3C2=NN(C(=O)c2ccco2)C3c2ccc(OC)c(OC)c2)cc1OC (centres undefined) | inconclusive: 4.15 µM [inhibitor, partial curve] | –
44 | COc1ccc(NC(=O)CCC(=O)c2cccs2)cc1S(=O)(=O)Nc1ccc(Cl)cc1 | inactive | –
45 | O=C(CN1C(=O)COc2ccccc21)NCCCN1CCN(c2ccccc2F)CC1 | inactive | –
46 | C#CCn1c(S(=O)(=O)Cc2ccc(F)cc2)nc(-c2ccccc2)c1-c1ccccc1 | active: 8.28 µM | –

Row | SMILES | Potency | activity change, negative = inhibition
47 | O=S(=O)(Cc1ccc(Cl)cc1)N1CCN(Cc2ccccc2)CC1 | inconclusive: 10.4 µM [inhibitor, partial curve] | –
48 | CN1CCN(C(CC(=O)Nc2cccc(O)c2)C(=O)O)CC1 (centres undefined) | inconclusive: 0.928 µM [inhibitor, partial curve, poor fit] | –
49 | COc1ccc(CCNC(=O)CC(C)S(=O)(=O)c2ccc3c(c2)NC(=O)CO3)cc1OC (centres undefined) | inactive | –
50 | CCOC(=O)C(C(=O)Nc1nc2ccccc2s1)C1CCCCC1 (centres undefined) | inactive | –
51 | CCC1(c2ccccc2)NC(=O)N(CC(=O)Nc2ccc(Cl)c(S(=O)(=O)N3CCCCC3)c2)C1=O (centres undefined) | inconclusive: 13.1 µM [inhibitor, single point] | –
52 | O=c1[nH][nH]cc1C=Nc1ccccc1O | inconclusive: 10.4 µM [inhibitor, single point] | –
53 | CCOC(=O)C(C)S(=O)(=O)c1ccc(C(F)(F)F)cn1 (centres undefined) | inactive | –
54 | COCCN1CCN(c2c3c(nc4cc(-c5cccc(F)c5)nn24)CCC3)CC1 | inconclusive: 2.08 µM [inhibitor, single point] | –
55 | CS(=O)(=O)n1nc(OC(=O)c2cccc3ccccc23)cc1N | active: 5.22 µM | –
56 | CCOc1ccc(N(CC(=O)NC2CC3CCC2C3)S(=O)(=O)c2ccccc2)cc1 (centres undefined) | inactive | –
57 | Cc1ccc(-n2c(C)nnc2SCC(=O)NNC(=O)c2ccco2)cc1 | inconclusive: 18.5 µM [inhibitor, partial curve, poor fit] | –
58 | Cc1nnsc1SCC(=O)O | inactive | –
59 | Cc1ccc(N(C(=O)c2snc(C(N)=O)c2N)C(C(=O)NCCC(C)C)c2ccco2)cc1 (centres undefined) | inconclusive: 0.117 µM [inhibitor, full curve, poor fit] | –
60 | CCN1C(=O)[C@H]2[C@@H](c3ccc(C)cc3)N3C(=O)N(c4ccc(OC)cc4)C(=O)[C@@]3(Cc3ccc(Cl)cc3)[C@H]2C1=O | inconclusive: 11.7 µM [inhibitor, single point] | –
61 | CCc1nc(Nc2ccccc2)c2oc3ccccc3c2n1 | inactive | –
62 | Cc1ccc(C(=O)COC(=O)COc2ccccc2C)cc1 | inactive | –
63 | COc1ccccc1OCCOCCOc1ccccc1Cl | inactive | –
64 | CC(c1cccs1)N(Cc1ccco1)C(=O)Nc1ccc(Cl)c(Cl)c1 (centres undefined) | inconclusive: 13.1 µM [inhibitor, single point] | –
65 | C1CCN2C[C@@H]3C[C@@H](CN4CCCC[C@H]34)[C@H]2C1 | inactive | –
66 | CCc1nc2ccccc2c(C(=O)OC2CCOC2=O)c1C (centres undefined) | inconclusive: 18.5 µM [inhibitor, single point] | –
67 | CCCCN(CCCC)C(=O)CN(C)S(=O)(=O)c1ccc2c(c1)n(C)c(=O)c(=O)n2C | inconclusive: 18.5 µM [inhibitor, single point] | –
68 | Cc1onc(-c2c(Cl)cccc2Cl)c1C(=O)c1c[nH]c(C(=O)NCC2CCCO2)c1 (centres undefined) | inconclusive: 11.7 µM [inhibitor, single point] | –
69 | O=C(CSc1cn(Cc2ccccc2)c2ccccc12)NCc1ccc(F)cc1 | active: 9.28 µM | –

Compounds above that contain a cyano group:
Row | SMILES | Potency | activity change, negative = inhibition
9 | COc1cc2cc(C#N)c(SCC(=O)N3CCOCC3)nc2cc1OC | inconclusive: 11.7 µM [inhibitor, single point] | –
19 | Cc1ccc(NCc2nnc(SCC#N)o2)c(C)c1 | inconclusive: 18.5 µM [inhibitor, single point] | –
24 | N#Cc1ccc(C23CC4(C2)[C@H](CN(Cc2ccc(-c5ccccc5)cc2)[C@@H]4c2ccccc2)C3c2ccc(C(F)(F)F)cc2)cc1 (some centres undefined) | inconclusive: 4.15 µM [inhibitor, single point] | –
